Laboratory results reported in patent US20240228472A1, “HETEROCYCLIC COMPOUND AND HARMFUL-ARTHROPOD-CONTROLLING COMPOSITION CONTAINING SAME” (SUMITOMO CHEMICAL COMPANY, LIMITED, priority 2021, published 2024).
Some of these results come from one statement about several compounds together. At least one structure is not confirmed: it was looked up by name or label, or the drawing left a doubt.

Tests used:
Assay type in all cases: in vivo
[1] = tested on: Silverleaf whiteflies (Bemisia tabaci); test: Test method 5: spray on tomato seedling carrying silverleaf whitefly larvae; conditions: Test Example 5-1; 200 ppm; spray 10 mL/seedling; after 7 days
[2] = tested on: cotton aphids (Aphis gossypii); test: Test method 1: foliar spray on cucumber seedling infested with cotton aphids (Formulation example 1); conditions: Test Example 1-1; 500 ppm; spray 10 mL/seedling; after 5 days
[3] = tested on: cotton aphids (Aphis gossypii); test: Test method 2: foliar spray on cucumber seedling infested with cotton aphids (Formulation example 5); conditions: Test Example 2-1; 200 ppm; spray 10 mL/seedling; after 5 days

Measured: controlling value

O=c1oc(-c2cccc(C(F)(F)F)c2)nn1-c1c(Br)cncc1Br [compound 96]
≥ 90%: all assays above

Cc1cncc(C)c1-n1nc(-c2cccc(C(F)(F)F)c2)oc1=O [compound 125]
≥ 90%: all assays above

CCSc1c(N(C)C(=O)c2ccn(C(F)F)n2)nc2ccc(I)cn12 [compound 19]
≥ 90%: all assays above

O=c1oc(-c2cccc(C(F)(F)F)c2)nn1-c1c(F)cncc1Cl [compound 148]
≥ 90%: all assays above

O=c1oc(-c2cccc(OC(F)(F)F)c2)nn1-c1ccncc1Cl [compound 91]
≥ 90%: all assays above

O=c1oc(-c2ccc(Br)c(F)c2)nn1-c1c(Br)cncc1Br [compound 147]
≥ 90%: all assays above

O=c1oc(-c2cccc(C(F)(F)F)c2)nn1-c1ccncc1Br [compound 92]
≥ 90%: all assays above

O=c1oc(-c2cccc(C(F)(F)F)c2)nn1-c1ccncc1C(F)(F)F [compound 94]
≥ 90%: all assays above

O=c1oc(-c2ccc(F)c(F)c2)nn1-c1c(F)cncc1Cl [compound 149]
≥ 90%: all assays above

CCS(=O)(=O)c1c(N(C)C(=O)c2cnc(C(F)(F)F)s2)nc2cc(I)ccn12 [compound 46]
≥ 90%: all assays above

CCS(=O)(=O)c1c(N(C)C(=O)c2cnc(C(F)(F)F)s2)nc2ccc(Br)cn12 [compound 42]
≥ 90%: all assays above
